This passage reports binding results from article doi:10.1101/2024.12.17.628051.

In assay [1] the target is T1, His-STRAD (residues 59-431), wild type (C160) (UniProt Q7RTN6).
T1 sequence: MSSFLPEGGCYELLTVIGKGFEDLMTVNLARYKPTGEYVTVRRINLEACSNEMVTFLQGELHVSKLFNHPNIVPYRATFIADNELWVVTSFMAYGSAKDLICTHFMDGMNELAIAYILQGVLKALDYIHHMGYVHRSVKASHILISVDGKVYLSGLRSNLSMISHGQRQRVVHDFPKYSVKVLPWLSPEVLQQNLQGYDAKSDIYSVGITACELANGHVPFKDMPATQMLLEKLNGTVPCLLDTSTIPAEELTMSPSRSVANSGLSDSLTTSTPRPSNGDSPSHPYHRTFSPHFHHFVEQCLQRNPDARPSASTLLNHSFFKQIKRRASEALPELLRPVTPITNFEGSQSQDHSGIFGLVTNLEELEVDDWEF
In words: SEC. For orientation: Size exclusion chromatography separates by hydrodynamic size, large species first.

Assay [2] deals with His-STRAD (residues 59-431 with C160S mutation) (UniProt Q7RTN6). The assay can be described thus: SEC.

These are yes or no findings as the source states them, for the method shown. Some results given as binding are weak or reduced against the parent protein; the word gives no strength. For some assays here: Where a sequence is shown, tags or fusion partners need not be part of it.

B1: MO25 (residues 1-341) (protein, UniProt Q9Y376 1-341)
chain: MPFPFGKSHKSPADIVKNLKESMAVLEKQDISDKKAEKATEEVSKNLVAMKEILYGTNEKEPQTEAVAQLAQELYNSGLLSTLVADLQLIDFEGKKDVAQIFNNILRRQIGTRTPTVEYICTQQNILFMLLKGYESPEIALNCGIMLRECIRHEPLAKIILWSEQFYDFFRYVEMSTFDIASDAFATFKDLLTRHKLLSAEFLEQHYDRFFSEYEKLLHSENYVTKRQSLKLLGELLLDRHNFTIMTKYISKPENLKLMMNLLRDKSRNIQFEAFHVFKVFVANPNKTQPILDILLKNQAKLIEFLSKFQNDRTEDEQFNDEKTYLVKQIRDLKRPAQQEA
As to B1, the binding entry in assay [1] and in assay [2] was “binds” in each case.
